Some of the results follow.
How the values were obtained:
Experiment in all cases: glycan array binding signal (z-score within array); higher = stronger binding
Details in all cases: glycan notation: IUPAC condensed, linker removed
[1] = molecular target: Gal3S(b1-3)[Fuc(a1-4)]GlcNAc
In short: (§1)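 Glycan array data were curated from 3228 arrays in the Consortium for Functional Glycomics database and kept only where the protein sequence was available. Glycan names were converted to IUPAC-condensed notation, and columns mapping to the same glycan were averaged. The binding signal is a within-array Z-score, averaged across arrays of the same protein sequence at different concentrations or buffers and across linkers. Negative Z-scores can be read as non-binding.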

Gal3S(b1-4)Glc = molecular target: Gal3S(b1-4)Glc
In short: as §1

Gal3S(b1-4)Glc6S = molecular target: Gal3S(b1-4)Glc6S
In short: as §1

Gal3S(b1-4)GlcNAc = molecular target: Gal3S(b1-4)GlcNAc
In short: as §1

Gal3S(b1-4)GlcNAc6S = molecular target: Gal3S(b1-4)GlcNAc6S
In short: as §1

[2] = molecular target: Gal3S(b1-4)[Fuc(a1-3)]Glc
In short: as §1

[3] = molecular target: Gal3S(b1-4)[Fuc(a1-3)]Glc6S
In short: as §1

Gal3S4S(b1-4)GlcNAc = molecular target: Gal3S4S(b1-4)GlcNAc
In short: as §1

Gal3S6S(b1-4)GlcNAc = molecular target: Gal3S6S(b1-4)GlcNAc
In short: as §1

Gal3S6S(b1-4)GlcNAc6S = molecular target: Gal3S6S(b1-4)GlcNAc6S
In short: as §1

Gal4S(b1-4)GlcNAc = molecular target: Gal4S(b1-4)GlcNAc
In short: as §1

Gal4S6S(b1-4)GlcNAc = molecular target: Gal4S6S(b1-4)GlcNAc
In short: as §1

Gal6S(b1-3)GlcNAc = molecular target: Gal6S(b1-3)GlcNAc
In short: as §1

Gal6S(b1-3)GlcNAc6S = molecular target: Gal6S(b1-3)GlcNAc6S
In short: as §1

Gal6S(b1-4)Glc = molecular target: Gal6S(b1-4)Glc
In short: as §1

Gal6S(b1-4)Glc6S = molecular target: Gal6S(b1-4)Glc6S
In short: as §1

Gal6S(b1-4)GlcNAc = molecular target: Gal6S(b1-4)GlcNAc
In short: as §1

Gal6S(b1-4)GlcNAc6S = molecular target: Gal6S(b1-4)GlcNAc6S
In short: as §1

GalNAc(a1-3)Gal = molecular target: GalNAc(a1-3)Gal
In short: as §1

GalNAc(a1-3)GalNAc = molecular target: GalNAc(a1-3)GalNAc
In short: as §1

[4] = molecular target: GalNAc(a1-3)GalNAc(a1-3)Gal(a1-4)Gal(b1-4)GlcNAc
In short: as §1

[5] = molecular target: GalNAc(a1-3)GalNAc(b1-3)Gal(a1-4)Gal(b1-4)Glc
In short: as §1

GalNAc(b1-3)Gal = molecular target: GalNAc(b1-3)Gal
In short: as §1

[6] = molecular target: GalNAc(b1-3)Gal(a1-4)Gal(b1-4)GlcNAc
In short: as §1

[7] = molecular target: GalNAc(b1-3)Gal(a1-4)Gal(b1-4)GlcNAc(b1-3)Gal(b1-4)Glc
In short: as §1

[8] = molecular target: GalNAc(b1-3)Gal(a1-6)Gal(b1-4)Glc
In short: as §1

GalNAc(b1-3)GalNAc = molecular target: GalNAc(b1-3)GalNAc
In short: as §1

GalNAc(b1-4)Gal(b1-4)Glc = molecular target: GalNAc(b1-4)Gal(b1-4)Glc
In short: as §1

GalNAc(b1-4)GlcNAc = molecular target: GalNAc(b1-4)GlcNAc
In short: as §1

[9] = molecular target: GalNAc(b1-4)GlcNAc(b1-2)Man(a1-3)[GalNAc(b1-4)GlcNAc(b1-2)Man(a1-6)]Man(b1-4)GlcNAc(b1-4)GlcNAc
In short: as §1

GalNAc(b1-6)GalNAc = molecular target: GalNAc(b1-6)GalNAc
In short: as §1

Glc(a1-4)Glc = molecular target: Glc(a1-4)Glc
In short: as §1

[10] = molecular target: Glc(a1-4)Glc(a1-4)Glc(a1-4)Glc
In short: as §1

Glc(a1-6)Glc(a1-6)Glc = molecular target: Glc(a1-6)Glc(a1-6)Glc
In short: as §1

[11] = molecular target: Glc(a1-6)Glc(a1-6)Glc(a1-6)Glc
In short: as §1

Glc(b1-4)Glc = molecular target: Glc(b1-4)Glc
In short: as §1

Glc(b1-6)Glc = molecular target: Glc(b1-6)Glc
In short: as §1

GlcA(b1-3)Gal = molecular target: GlcA(b1-3)Gal
In short: as §1

GlcA(b1-3)GlcNAc = molecular target: GlcA(b1-3)GlcNAc
In short: as §1

GlcA(b1-6)Gal = molecular target: GlcA(b1-6)Gal
In short: as §1

[12] = molecular target: GlcNAc(a1-3)Gal(b1-4)GlcNAc
In short: as §1

[13] = molecular target: GlcNAc(a1-4)Gal(b1-3)GlcNAc
In short: as §1

[14] = molecular target: GlcNAc(a1-4)Gal(b1-4)GalNAc
In short: as §1

[15] = molecular target: GlcNAc(a1-4)Gal(b1-4)GlcNAc
In short: as §1

[16] = molecular target: GlcNAc(a1-4)Gal(b1-4)GlcNAc(b1-3)Gal(b1-4)Glc
In short: as §1

B1: Protectin (Homo sapiens), P13987 (protein)
chain: MGIQGGSVLFGLLLVLAVFCHSGHSLQCYNCPNPTADCKTAVNCSSDFDACLITKAGLQVYNKCWKFEHCNFNDVTTRLRENELTYYCCKKDLCNFNEQLENGGTSLSEKTVLLLVTPFLAAAWSLHP
- glycan array binding signal (z-score) [1]: 0.361
- glycan array binding signal (z-score) (Gal3S(b1-4)Glc): 0.803
- glycan array binding signal (z-score) (Gal3S(b1-4)Glc6S): -0.411
- glycan array binding signal (z-score) (Gal3S(b1-4)GlcNAc): -0.74
- glycan array binding signal (z-score) (Gal3S(b1-4)GlcNAc6S): -0.362
- glycan array binding signal (z-score) [2]: -0.266
- glycan array binding signal (z-score) [3]: 1.05
- glycan array binding signal (z-score) (Gal3S4S(b1-4)GlcNAc): 0.418
- glycan array binding signal (z-score) (Gal3S6S(b1-4)GlcNAc): -0.261
- glycan array binding signal (z-score) (Gal3S6S(b1-4)GlcNAc6S): 0.138
- glycan array binding signal (z-score) (Gal4S(b1-4)GlcNAc): -0.743
- glycan array binding signal (z-score) (Gal4S6S(b1-4)GlcNAc): 0.014
- glycan array binding signal (z-score) (Gal6S(b1-3)GlcNAc): 0.224
- glycan array binding signal (z-score) (Gal6S(b1-3)GlcNAc6S): -1.26
- glycan array binding signal (z-score) (Gal6S(b1-4)Glc): -0.469
- glycan array binding signal (z-score) (Gal6S(b1-4)Glc6S): -0.413
- glycan array binding signal (z-score) (Gal6S(b1-4)GlcNAc): -1.7
- glycan array binding signal (z-score) (Gal6S(b1-4)GlcNAc6S): 0.08
- glycan array binding signal (z-score) (GalNAc(a1-3)Gal): -0.944
- glycan array binding signal (z-score) (GalNAc(a1-3)GalNAc): -2.03
- glycan array binding signal (z-score) [4]: -0.351
- glycan array binding signal (z-score) [5]: 1.35
- glycan array binding signal (z-score) (GalNAc(b1-3)Gal): -1.36
- glycan array binding signal (z-score) [6]: -0.395
- glycan array binding signal (z-score) [7]: -0.122
- glycan array binding signal (z-score) [8]: 1.77
- glycan array binding signal (z-score) (GalNAc(b1-3)GalNAc): -0.822
- glycan array binding signal (z-score) (GalNAc(b1-4)Gal(b1-4)Glc): 2.18
- glycan array binding signal (z-score) (GalNAc(b1-4)GlcNAc): -0.146
- glycan array binding signal (z-score) [9]: 2.58
- glycan array binding signal (z-score) (GalNAc(b1-6)GalNAc): -0.397
- glycan array binding signal (z-score) (Glc(a1-4)Glc): -0.2
- glycan array binding signal (z-score) [10]: 0.17
- glycan array binding signal (z-score) (Glc(a1-6)Glc(a1-6)Glc): -0.12
- glycan array binding signal (z-score) [11]: -2.07
- glycan array binding signal (z-score) (Glc(b1-4)Glc): -0.516
- glycan array binding signal (z-score) (Glc(b1-6)Glc): -0.906
- glycan array binding signal (z-score) (GlcA(b1-3)Gal): -0.258
- glycan array binding signal (z-score) (GlcA(b1-3)GlcNAc): 0.253
- glycan array binding signal (z-score) (GlcA(b1-6)Gal): -0.432
- glycan array binding signal (z-score) [12]: -0.315
- glycan array binding signal (z-score) [13]: 0.293
- glycan array binding signal (z-score) [14]: -0.029
- glycan array binding signal (z-score) [15]: -1.51
- glycan array binding signal (z-score) [16]: -1.29
